In patent publication US20250295608A1, “PHARMACEUTICAL COMPOSITIONS AND METHODS FOR TREATING OSTEOARTHRITIS” (INSIGNIA PHARMACEUTICALS, LLC, priority 2024, published 2025):

Experiments:
SOX9 versus RUNX2 = assay: Relative expression of SOX9 versus RUNX2 in osteoarthritic chondrocytes; format: cell-based, human; conditions: low passage osteoarthritic chondrocytes; 7, 14, 28 days
[1] = tested on: type II collagen (Col2a1); assay: Col2a1 relative expression in osteoarthritic chondrocytes (qRT-PCR); format: cell-based, human; conditions: low passage osteoarthritic chondrocytes, day 28

`C[C@@H]1C[C@H]2[C@@H]3CCC4=CC(=O)C=C[C@]4(C)[C@@]3(F)[C@@H](O)C[C@]2(C)[C@@]1(O)C(=O)COP(=O)(O)O` [Dxp, dexamethasone phosphate, reference compound] was tested, and the “ratio of SOX9/RUNX2” value (SOX9 versus RUNX2) was “reduced” and the “relative expression of Col2a1” value [1] was “reduction”.
